PubChem BioAssay AID1259308 – NCATS – 2017
Test: 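Candidate targets for better recombinant protein yield in mammalian cells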 (primary screen). Cells: human HEK293 embryonic kidney cells stably expressing firefly luciferase (HEK-CMV-Luc2-Hygro). Reagent: single siRNA against human genes, 0.8 pmol siRNA per well. Time to read-out: 72 h. Measured: 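Luciferase light (ONE-Glo) measured on one replicate plate set and viability (CellTiter-Glo) on the other, scaled to a negative control siRNA, with robust z-scores and luciferase per cell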. Scale: total luciferase, z-score and total luciferase, % of control: higher = more reporter protein produced; luciferase per cell, z-score: higher = more reporter output per viable cell. Active means: 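An siRNA counts as active if its total luciferase robust z-score exceeds 3; genes with two or more such siRNAs out of three were retested with fresh siRNAs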. Meaning of the calls: active = raised luciferase; inactive = no rise.
In all, the deposit lists about 59,000 reagents; shown is an unselected part. About 1,510 of them (2.6%) were called active. 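Calls use total luciferase alone and ignore viability, so some active siRNAs may act by altering cell number.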 Reagents against one gene are numbered here. Not all columns of the deposit are shown. Reagent sequences are not shown.

no.	target	reagent	total luciferase, z-score	total luciferase, % of control	luciferase per cell, z-score	Call
1	AK9 (adenylate kinase 9)	1	0.464	91.1	0.0373	inactive
2	AK9 (adenylate kinase 9)	2	-1.66	48.9	-1.2	inactive
3	AK9 (adenylate kinase 9)	3	-0.636	69.2	-0.448	inactive
4	AK9 (adenylate kinase 9)	4	0.387	89.6	-0.129	inactive
5	AK9 (adenylate kinase 9)	5	-0.853	64.9	-0.765	inactive
6	AK9 (adenylate kinase 9)	6	-0.573	70.5	0.597	inactive
7	AK9 (adenylate kinase 9)	7	0.941	101	0.948	inactive
8	AK9 (adenylate kinase 9)	8	0.0241	82.4	-0.303	inactive
9	AK9 (adenylate kinase 9)	9	-0.848	65	-0.754	inactive
10	E2F6P4 (E2F transcription factor 6 pseudogene 4)	1	-0.514	71.7	0.345	inactive
11	E2F6P4 (E2F transcription factor 6 pseudogene 4)	2	-0.279	76.3	-0.843	inactive
12	E2F6P4 (E2F transcription factor 6 pseudogene 4)	3	-0.248	76.9	-0.706	inactive
13	DNAJC11 (DnaJ heat shock protein family (Hsp40) member C11)	1	0.615	94.1	1	inactive
14	DNAJC11 (DnaJ heat shock protein family (Hsp40) member C11)	2	0.371	89.3	0.749	inactive
15	DNAJC11 (DnaJ heat shock protein family (Hsp40) member C11)	3	-0.217	77.6	0.612	inactive
16	CMPK1 (cytidine/uridine monophosphate kinase 1)	1	0.37	89.2	0.384	inactive
17	CMPK1 (cytidine/uridine monophosphate kinase 1)	2	1.2	106	0.156	inactive
18	CMPK1 (cytidine/uridine monophosphate kinase 1)	3	-0.958	62.8	-0.477	inactive
19	YARS2 (tyrosyl-tRNA synthetase 2)	1	-0.54	71.2	-0.859	inactive
20	YARS2 (tyrosyl-tRNA synthetase 2)	2	-0.24	77.1	-0.707	inactive
21	YARS2 (tyrosyl-tRNA synthetase 2)	3	-0.763	66.7	-0.755	inactive
22	BANF2 (BANF family member 2)	1	0.441	90.7	1.46	inactive
23	BANF2 (BANF family member 2)	2	0.613	94.1	0.755	inactive
24	BANF2 (BANF family member 2)	3	-0.111	79.7	-0.793	inactive
25	RNASET2 (ribonuclease T2)	1	-0.115	79.6	0.0426	inactive
26	RNASET2 (ribonuclease T2)	2	1.73	116	0.768	inactive
27	RNASET2 (ribonuclease T2)	3	-0.412	73.7	0.563	inactive
28	LINC02226 (long independently transcribed non-coding RNA 2226)	1	1.26	107	1.53	inactive
29	LINC02226 (long independently transcribed non-coding RNA 2226)	2	-1.56	50.8	-1.34	inactive
30	LINC02226 (long independently transcribed non-coding RNA 2226)	3	-0.47	72.5	-1.05	inactive
31	RUFY2 (RUN and FYVE domain containing 2)	1	1.23	106	0.9	inactive
32	RUFY2 (RUN and FYVE domain containing 2)	2	-1.31	55.9	-1.31	inactive
33	RUFY2 (RUN and FYVE domain containing 2)	3	1.96	121	2.2	inactive
34	ELOB (elongin B)	1	-0.0365	81.2	0.85	inactive
35	ELOB (elongin B)	2	2.56	133	2.26	inactive
36	ELOB (elongin B)	3	1.26	107	1.05	inactive
37	PAPSS2 (3'-phosphoadenosine 5'-phosphosulfate synthase 2)	1	-0.239	77.1	-0.324	inactive
38	PAPSS2 (3'-phosphoadenosine 5'-phosphosulfate synthase 2)	2	-0.479	72.4	0.0436	inactive
39	PAPSS2 (3'-phosphoadenosine 5'-phosphosulfate synthase 2)	3	0.574	93.3	0.727	inactive

Part of the list above in another layout.
| target | reagent | total luciferase, z-score | total luciferase, % of control | luciferase per cell, z-score | Call |
| --- | --- | --- | --- | --- | --- |
| YARS2 (tyrosyl-tRNA synthetase 2) | 1 | -0.54 | 71.2 | -0.859 | inactive |
| YARS2 (tyrosyl-tRNA synthetase 2) | 2 | -0.24 | 77.1 | -0.707 | inactive |
| YARS2 (tyrosyl-tRNA synthetase 2) | 3 | -0.763 | 66.7 | -0.755 | inactive |
| BANF2 (BANF family member 2) | 1 | 0.441 | 90.7 | 1.46 | inactive |
| BANF2 (BANF family member 2) | 2 | 0.613 | 94.1 | 0.755 | inactive |
| BANF2 (BANF family member 2) | 3 | -0.111 | 79.7 | -0.793 | inactive |
| RNASET2 (ribonuclease T2) | 1 | -0.115 | 79.6 | 0.0426 | inactive |
| RNASET2 (ribonuclease T2) | 2 | 1.73 | 116 | 0.768 | inactive |
| RNASET2 (ribonuclease T2) | 3 | -0.412 | 73.7 | 0.563 | inactive |
| LINC02226 (long independently transcribed non-coding RNA 2226) | 1 | 1.26 | 107 | 1.53 | inactive |

Additional results:
no.	target	reagent	total luciferase, z-score	total luciferase, % of control	luciferase per cell, z-score	Call
40	CSGALNACT2 (chondroitin sulfate N-acetylgalactosaminyltransferase 2)	1	-0.35	74.9	-0.712	inactive
41	CSGALNACT2 (chondroitin sulfate N-acetylgalactosaminyltransferase 2)	2	-0.392	74.1	-0.511	inactive
42	CSGALNACT2 (chondroitin sulfate N-acetylgalactosaminyltransferase 2)	3	0.16	85.1	-0.0882	inactive
43	PACC1 (proton activated chloride channel 1)	1	-0.999	62	-1.24	inactive
44	PACC1 (proton activated chloride channel 1)	2	-0.461	72.7	-0.249	inactive
45	PACC1 (proton activated chloride channel 1)	3	1.86	119	1.3	inactive
46	CDK6 (cyclin dependent kinase 6)	1	-0.719	67.6	-1.3	inactive
47	CDK6 (cyclin dependent kinase 6)	2	4.37	169	2.95	active
48	CDK6 (cyclin dependent kinase 6)	3	0.0693	83.3	-0.25	inactive
49	RTN2 (reticulon 2)	1	1.68	115	1.56	inactive
50	RTN2 (reticulon 2)	2	-1.41	53.8	-0.492	inactive
51	RTN2 (reticulon 2)	3	-0.104	79.8	-0.614	inactive
52	ERCC6L (ERCC excision repair 6 like DNA helicase)	1	0.239	86.6	0.091	inactive
53	ERCC6L (ERCC excision repair 6 like DNA helicase)	2	-0.163	78.6	-0.982	inactive
54	ERCC6L (ERCC excision repair 6 like DNA helicase)	3	-0.299	75.9	-0.722	inactive
55	AFAP1L2 (actin filament associated protein 1 like 2)	1	0.393	89.7	0.623	inactive
56	AFAP1L2 (actin filament associated protein 1 like 2)	2	-1.37	54.7	-0.719	inactive
57	AFAP1L2 (actin filament associated protein 1 like 2)	3	-1.91	43.9	-1.11	inactive
58	H2ACP1 (H2AC histone family pseudogene 1)	1	0.867	99.1	1.09	inactive
59	H2ACP1 (H2AC histone family pseudogene 1)	2	-0.929	63.4	-1.16	inactive
60	H2ACP1 (H2AC histone family pseudogene 1)	3	0.0184	82.3	0.401	inactive
61	KNG1 (kininogen 1)	1	-0.441	73.1	-0.556	inactive
62	KNG1 (kininogen 1)	2	-1.32	55.7	-0.568	inactive
63	KNG1 (kininogen 1)	3	-0.924	63.5	-1.19	inactive
64	DCUN1D3 (defective in cullin neddylation 1 domain containing 3)	1	1.46	111	1.09	inactive
65	DCUN1D3 (defective in cullin neddylation 1 domain containing 3)	2	2.27	127	1.85	inactive
66	DCUN1D3 (defective in cullin neddylation 1 domain containing 3)	3	-0.36	74.7	-0.675	inactive
67	SLC24A4	1	0.956	101	0.71	inactive
68	SLC24A4	2	0.466	91.2	0.951	inactive
69	SLC24A4	3	-0.772	66.5	-1.09	inactive
70	MYO1F (myosin IF)	1	-0.113	79.6	-0.0766	inactive
71	MYO1F (myosin IF)	2	1.22	106	1.37	inactive
72	MYO1F (myosin IF)	3	-0.735	67.3	-0.15	inactive
73	ZNF614 (zinc finger protein 614)	1	0.858	99	0.49	inactive
74	ZNF614 (zinc finger protein 614)	2	-0.0315	81.3	-0.0235	inactive
75	ZNF614 (zinc finger protein 614)	3	-0.211	77.7	0.386	inactive
